The target of this experiment is T1, Themis (thymocyte-expressed molecule involved in selection), endogenous wild type (mouse (endogenous in thymocytes)) (UniProt Q8BGW0).
T1 sequence: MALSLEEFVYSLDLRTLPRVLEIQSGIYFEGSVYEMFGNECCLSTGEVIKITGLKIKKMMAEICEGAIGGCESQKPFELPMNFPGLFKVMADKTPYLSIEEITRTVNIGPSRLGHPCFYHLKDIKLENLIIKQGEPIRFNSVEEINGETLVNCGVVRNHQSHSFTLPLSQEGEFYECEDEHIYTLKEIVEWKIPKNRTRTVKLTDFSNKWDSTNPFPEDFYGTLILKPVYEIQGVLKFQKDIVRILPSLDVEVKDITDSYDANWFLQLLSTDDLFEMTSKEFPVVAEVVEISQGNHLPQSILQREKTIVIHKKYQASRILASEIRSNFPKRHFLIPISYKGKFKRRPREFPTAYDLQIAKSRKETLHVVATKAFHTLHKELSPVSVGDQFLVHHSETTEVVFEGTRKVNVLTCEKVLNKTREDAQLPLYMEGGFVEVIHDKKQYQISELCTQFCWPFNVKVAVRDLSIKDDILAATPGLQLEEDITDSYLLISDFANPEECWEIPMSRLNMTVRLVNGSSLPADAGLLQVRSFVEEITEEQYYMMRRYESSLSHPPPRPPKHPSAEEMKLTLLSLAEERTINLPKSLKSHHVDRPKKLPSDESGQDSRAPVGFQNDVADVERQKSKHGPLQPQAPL
Description: co-IP; mouse thymocytes, unstimulated or stimulated with anti-CD3 plus anti-CD4 (Fig. S3: also anti-CD8) antibodies; lysis buffer 50 mM Tris-HCl pH 7.5, 150 mM NaCl, 10 mM MgCl2, 0.5% Nonidet P-40; immunoprecipitated with anti-Themis antibody on protein G-sepharose, immunoblot. In general terms: Immunoblotting shows a protein as a band on a membrane.

Results are given in words; binding and its absence hold for the method and conditions named. In cells and extracts the contact can be indirect. Some entries that bind do so weakly or less than the wild type.

B1: LAT (protein, UniProt O54957 1-242)
chain: MEADALSPVGLGLLLLPFLVTLLAALCVRCRELPVSYDSTSTESLYPRSILIKPPQITVPRTPAVSYPLVTSFPPLRQPDLLPIPRSPQPLGGSHRMPSSQQNSDDANSVASYENQEPACKNVDADEDEDDYPNGYLVVLPDSSPAAVPVVSSAPVPSNPDLGDSAFSVESCEDYVNVPESEESAEASLDGSREYVNVSPEQQPVTRAELASVNSQEVEDEGEEEGVDGEEAPDYENLQELN
As to B1, the binding result is “binds”.

(Values after publication PMC3931654.)
